Values joined by “and” are separate entries in the source; they are usually repeats but may differ in a detail not shown here. Identical values can stand only once. Among all 580,000 compounds or so, about 6,100 (1.1%) were called active. Inconclusive means that the source gave no clear call. Such entries were picked first, then a sample of the others. Calls follow the shape of the dose curve; as a rule, active = well fitted inhibition curve with a large enough effect; inconclusive = small, poorly fitted or top-dose-only effect, or another doubt; inactive = no such curve, though single readings can be large or run the other way. Where the call is inconclusive, the potency comes from a doubtful curve fit.
What follows are compounds tested against Polyunsaturated fatty acid lipoxygenase ALOX12 (Homo sapiens) (UniProt P18054) (assay: Primary qHTS assay for inhibitors of human arachidonate 12S-lipoxygenase (ALOX12): Round 2). Settings: purified 12hLO, xylenol orange hydroperoxide absorbance; activity change, negative = inhibition: at 108 µM (top of the series) unless noted.
Summary of the method: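 Hydroperoxide product was detected by ferrous iron/xylenol orange as the 573 to 405 nm absorbance ratio. Arachidonic acid at 40 uM (final) was turned over for 30 min at room temperature by 150 nM human 12hLO, pH 7.0 Hepes buffer, after 15 min compound preincubation.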
% is scaled to controls: 0 for no effect and ±100 for the full control effect; potency is read from the fitted curve at half-maximal effect.

Amino acid sequences for entries named in this document (tags omitted). A change or cut given only in a name is not applied to a line headed by its entry.
UniProt P18054: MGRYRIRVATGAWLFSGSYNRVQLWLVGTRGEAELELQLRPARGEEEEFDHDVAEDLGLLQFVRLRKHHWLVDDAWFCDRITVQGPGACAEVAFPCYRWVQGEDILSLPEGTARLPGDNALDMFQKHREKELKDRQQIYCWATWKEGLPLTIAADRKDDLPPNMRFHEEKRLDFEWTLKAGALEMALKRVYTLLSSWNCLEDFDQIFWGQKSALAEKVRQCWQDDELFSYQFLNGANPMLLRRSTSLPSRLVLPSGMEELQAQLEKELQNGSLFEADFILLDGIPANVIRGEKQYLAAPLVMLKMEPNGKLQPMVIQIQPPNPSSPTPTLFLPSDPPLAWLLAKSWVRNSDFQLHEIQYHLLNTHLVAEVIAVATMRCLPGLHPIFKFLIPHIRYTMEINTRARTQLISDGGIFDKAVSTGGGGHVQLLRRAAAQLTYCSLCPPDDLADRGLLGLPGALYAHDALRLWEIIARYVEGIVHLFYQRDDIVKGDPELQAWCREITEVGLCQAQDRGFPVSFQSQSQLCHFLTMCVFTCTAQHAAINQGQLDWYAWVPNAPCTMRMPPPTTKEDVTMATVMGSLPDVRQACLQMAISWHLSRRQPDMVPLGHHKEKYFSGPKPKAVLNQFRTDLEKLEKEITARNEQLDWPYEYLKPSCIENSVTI

Row | Compound | Potency | activity change, negative = inhibition
1 | COc1c(O)cc2oc(-c3ccc(O)cc3)cc(=O)c2c1O | inconclusive: 5.62 µM [inhibitor, full curve, poor fit] and inconclusive: 14.1 µM [inhibitor, single point] | 
2 | c1ccc2[nH]c(Cn3nnc4ccccc43)nc2c1 | inconclusive: 35.5 µM [inhibitor, single point] | 
3 | CC(=O)c1cccc(NC(=S)NC(=O)c2ccccc2Br)c1 | inconclusive: 31.6 µM [inhibitor, partial curve] | 
4 | Cc1ccc(CN(Cc2ccco2)C(=O)COc2c(C)cc(C)cc2C)cc1 | inconclusive: 112 µM [inhibitor, partial curve, poor fit] | 
5 | COc1ccc([C@H]2CC(=O)C=C(c3ccc(Cl)c(F)c3)C2)cc1 | inconclusive: 20 µM [inhibitor, full curve, poor fit] | 
6 | COc1ccc(CCNC(=S)N2CCN(S(=O)(=O)c3ccccc3F)CC2)cc1 | inconclusive: 39.8 µM [inhibitor, partial curve, poor fit] | 
7 | Cc1cccc2cc(/C=N/NC(=O)c3ccncc3)c(Cl)nc12 | inconclusive: 31.6 µM [inhibitor, single point] | 
8 | Cc1ccccc1CC(=O)Nc1ccc2c(c1)CCC2 | inconclusive: 39.8 µM [inhibitor, single point] | 
9 | CCOC(=O)Nc1oc2ccccc2c(=O)c1CN1CCOCC1 |  | inactive: 2.54%
10 | O=C(Nc1cc(C(F)(F)F)ccc1Cl)c1nn(-c2cccc(Cl)c2)ccc1=O |  | inactive: 14.9%
11 | OCC1(Cc2ccccc2F)CCCN(CCc2ccccc2)C1 (centres undefined) | inconclusive: 79.4 µM [inhibitor, partial curve, poor fit] | 
12 | Cc1nn2c(c1-c1ccccc1Oc1ccccc1)N(Cc1cccc(C(=O)O)c1)CCC2 | inconclusive: 35.5 µM [inhibitor, full curve, poor fit] | 
13 | O=C(CSc1nnc(-c2ccc(F)cc2)o1)N1CCCC1 | inconclusive: 89.1 µM [inhibitor, single point] | 
14 | CO[C@H]1[C@H](NC(=O)Cc2cccnc2)c2ccccc2C12CCNCC2 | inconclusive: 10 µM [inhibitor, full curve, poor fit] | 
15 | O=c1[nH]n(-c2ccc(Cl)cc2)c(=O)c(Cl)c1Cl | inconclusive: 35.5 µM [inhibitor, partial curve, poor fit] | 
16 | Cn1c(O)c(N=NC(=O)c2ccccc2O)c2ccccc21 |  | inactive: -1.68%
17 | NCCNc1cccc2ccccc12 | inconclusive: 18.1 µM [inhibitor, single point] | 
18 | CN(C(=O)C1CCCN(c2ncnc3c2nc2n3CCCCC2)C1)c1cccc(Cl)c1 (centres undefined) | inconclusive: 100 µM [inhibitor, single point] | 
19 | CC(=O)N1C2=CCCC3CCCCC23c2ccccc21 (centres undefined) | inconclusive: 126 µM [inhibitor, single point] | 
20 | COc1ccc(C2CCCN2C(=O)Cn2cccnc2=O)c(OC)c1 (centres undefined) |  | inactive: -4.12%
21 | Nc1nc(-c2ccccc2)c(C(=O)Nc2ccccc2)s1 | inconclusive: 79.4 µM [inhibitor, single point] | 
22 | CSCCC1NC(=S)N(Cc2ccccc2)C1=O (centres undefined) | inconclusive: 35.5 µM [inhibitor, partial curve, poor fit] | 
23 | CCCCCCSc1ccc(-c2nc3ccc(C)cn3c2NCc2ccccc2)cc1OC | inconclusive: 15.8 µM [inhibitor, partial curve, poor fit] | 

Row | Compound | Potency | activity change, negative = inhibition
24 | CCCOc1ccc(C(=O)Nc2ccc(CN3CCOCC3)cc2)cc1 | inconclusive: 12.6 µM [inhibitor, full curve] | 
25 | COc1cc(-c2nc(C(=O)NCC3CCCO3)cc3c2[nH]c2ccccc23)cc(OC)c1OC (centres undefined) | inconclusive: 35.5 µM [inhibitor, single point] | 
26 | Cc1[nH]oc(=O)c1N=Nc1ccccc1 | inconclusive: 56.2 µM [inhibitor, partial curve, poor fit] | 
27 | CC(C)n1nnnc1C(c1ccc(F)cc1)N1CCN(C2CCCC2)CC1 (centres undefined) | inconclusive: 35.5 µM [inhibitor, partial curve, poor fit] | 
28 | COCCCNC(=O)c1ccc2nc(Cc3ccc(OC)cc3)oc2c1 | inconclusive: 20 µM [inhibitor, full curve, poor fit] | 
29 | COc1ccc(CC(=O)Nc2ccncc2Cl)cc1 |  | inactive: -3.98%
30 | Cc1cc(C)c2c(c1)-c1c(ssc1=S)C(C)(C)N2C(=O)CSc1nncn1C | inconclusive: 10 µM [inhibitor, full curve, poor fit] | 
31 | COc1ccc(C(=O)NC(=S)NNC(=O)CCc2ccccc2)cc1 | active: 12.6 µM | 
32 | Cc1cccc(C(=O)NNC(=O)c2ccccc2O)c1 |  | inactive: 0%
33 | COc1ccc(C(=O)Nc2cc3c4c(c2)CC(=O)N4CCC3)cc1 | inconclusive: 10 µM [inhibitor, partial curve, poor fit] | 
34 | Cc1ccc(-c2ccc3nnc(CNC(=O)c4cccc(C(F)(F)F)c4)n3n2)cc1 |  | inactive: 36.2%
35 | CC1=C(C(=O)OCC2CCCCC2)C(c2ccc(O)cc2)NC(=O)N1 (centres undefined) | inconclusive: 2 µM [inhibitor, full curve] | 
36 | O=C(N/N=C/c1c(Cl)cccc1Cl)c1ccc(-n2cnnn2)cc1 |  | inactive: -7.64%
37 | N#C/C(=C\c1ccccc1OCc1ccccc1F)C(=O)Nc1ccccc1C(F)(F)F | inconclusive: 35.5 µM [inhibitor, partial curve, poor fit] | 
38 | CC(C)c1ccc(CNn2cnnc2)cc1 | inconclusive: 50.1 µM [inhibitor, partial curve, poor fit] | 
39 | CCOc1ccc2c(c1)-c1c(ssc1=S)C(C)(C)N2C(=O)c1ccco1 | inconclusive: 44.7 µM [inhibitor, partial curve] | 
40 | O=c1[nH]c(/C(=N\O)c2ccccc2)no1 |  | inactive: 64%
41 | CC(C)(C)c1cc(SCCC#N)cc(C(C)(C)C)c1O | inconclusive: 14.1 µM [inhibitor, full curve, poor fit] | 
42 | O=C(Nc1ccc(CN2CCOC2=O)cc1)N1CCCC1 | inconclusive: 1.58 µM [inhibitor, full curve, poor fit] | 
43 | CCOc1ccc(NC(=O)c2sc3nc4c(cc3c2N)CCCCCC4)cc1 | inconclusive: 63.1 µM [inhibitor, partial curve, poor fit] | 
44 | O=C(CCCc1nc2ccccc2s1)NCc1ccc(F)cc1 |  | inactive: -12.8%
45 | O=c1cc(CN2CCN(c3ccccc3F)CC2)c2ccccc2o1 | inconclusive: 100 µM [inhibitor, single point] | 
46 | CN(C)CCN(C)C(=O)c1ccc2c(c1)NC(C)(COc1ccccc1)CO2 (centres undefined) | inconclusive: 35.5 µM [inhibitor, full curve, poor fit] | 

Row | Compound | Potency | activity change, negative = inhibition
47 | Cc1oc(-c2ccc(Cl)cc2)cc1C(=O)Nc1nccs1 | inconclusive: 50.1 µM [inhibitor, partial curve, poor fit] | 
48 | CCN(CC)S(=O)(=O)c1ccc(S(=O)(=O)Nc2ccc(C(C)C)cc2)cc1 | inconclusive: 89.1 µM [inhibitor, single point] | 
49 | Cc1cc(=O)oc(C)c1C(=O)NNC(=O)C1(C)CC1Br (centres undefined) | inconclusive: 112 µM [inhibitor, partial curve, poor fit] | 
50 | Cn1c(=O)oc2cc(S(=O)(=O)N3CCC(C(=O)N4CC=C(c5ccccc5)CC4)CC3)ccc21 |  | inactive: -0.0337%
51 | CC(C)NC(=O)C1CCN(C(=O)c2ccc3ccccc3n2)CC1 | inconclusive: 31.6 µM [inhibitor, single point] | 
52 | Clc1cccc(-n2c(SCc3cn4ccccc4n3)nnc2N2CCCC2)c1 |  | inactive: -0.833%
53 | Cc1ccc(NC(=O)NCc2ccc3c(c2)OCO3)c(C)c1 |  | inactive: -7.04%
54 | CN(C)CCCNCCC#N |  | inactive: 20.9%
55 | O=C1Cc2c([nH]c3ccc(Br)cc23)-c2ccccc2N1 | inconclusive: 39.8 µM [inhibitor, partial curve, poor fit] | 
56 | COC(=O)[C@H](C(C)C)N1CCc2nnn(Cc3ccc(C)cc3)c2-c2ccccc2S1(=O)=O | inconclusive: 35.5 µM [inhibitor, partial curve, poor fit] | 
57 | C=CCn1c(O)c(N=NC(=S)Nc2cccc(C)c2)c2ccccc21 |  | inactive: -23.9%
58 | FC(F)(F)c1ccc2nc([C@H]3CCN(Cc4ccc(Cl)cc4)C3)[nH]c2c1 | active: 31.6 µM | 
59 | CC(NC(=O)C1CCOCC1)c1ccc(Cl)s1 (centres undefined) |  | inactive: -2.51%
60 | CCc1ccc(CN2CCC(CNC(=O)C(C)(C)C)CC2)nc1 |  | inactive: -8.24%
61 | CCOc1ccc(-c2csc(NNC3=NCCCCC3)n2)cc1 | inconclusive: 0.631 µM [inhibitor, full curve, poor fit] | 
62 | Cc1ccccc1Cn1nc(C)c(NC(=O)c2noc3c2CC(C(C)(C)C)CC3)c1C (centres undefined) |  | inactive: -21.5%
63 | CC1CCCC(c2ccc(O)cc2)(c2ccc(O)cc2)C1 (centres undefined) | inconclusive: 44.7 µM [inhibitor, partial curve, poor fit] | 
64 | CC(C)(C)OC(=O)N/N=C\c1ccc(OC(=O)c2ccco2)cc1 |  | inactive: 14.5%
65 | CCOC(=O)Cc1cc(-c2ccccc2)nc2ccc3ccccc3c12 | inconclusive: 50.1 µM [inhibitor, partial curve, poor fit] | 
66 | Cc1nc(C(=O)NNC(=O)c2ccccc2)c(C(F)(F)F)o1 |  | inactive: 0%
67 | COc1ccc(CCN2CCN(CCCc3ccccc3)CC2)cc1OC | inconclusive: 24.3 µM [inhibitor, partial curve] | 
68 | O=C(O)COc1ccccc1/C=N/NC(=O)c1cccc(S(=O)(=O)Nc2cccc(Cl)c2)c1 | inconclusive: 11.2 µM [inhibitor, full curve, poor fit] | 
69 | O=C(COC(=O)CCC(=O)c1cccs1)Nc1ccc(S(=O)(=O)N2CCOCC2)cc1 | inconclusive: 28.2 µM [inhibitor, partial curve, poor fit] | 

Source: PubChem BioAssay AID1671190 (National Center for Advancing Translational Sciences (NCATS), 2021)
